Test results taken from PMC9499959.
No constants are given. Whether binding was seen depends on the method and setting. In cells and extracts the contact can be indirect. A result given as binding can be weak or reduced; the word gives no strength. Where a sequence is shown, tags or fusion partners need not be part of it.

Protein sequences, listed by entry. Tags and fused reporters are not part of them. Lines headed by an entry give the natural chain unless they say otherwise; changes in a name come on top.
UniProt P79065: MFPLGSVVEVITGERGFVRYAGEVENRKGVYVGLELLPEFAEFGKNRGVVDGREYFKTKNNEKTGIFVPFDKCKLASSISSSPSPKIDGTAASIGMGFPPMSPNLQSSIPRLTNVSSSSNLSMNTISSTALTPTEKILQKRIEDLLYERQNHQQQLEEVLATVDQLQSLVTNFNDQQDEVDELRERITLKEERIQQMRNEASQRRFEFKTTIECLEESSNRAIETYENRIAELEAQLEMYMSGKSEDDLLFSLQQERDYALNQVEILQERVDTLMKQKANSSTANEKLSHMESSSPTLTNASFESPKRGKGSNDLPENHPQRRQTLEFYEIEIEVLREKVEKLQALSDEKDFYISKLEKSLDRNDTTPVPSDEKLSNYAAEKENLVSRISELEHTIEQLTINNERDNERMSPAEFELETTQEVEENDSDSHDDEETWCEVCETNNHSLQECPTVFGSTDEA

Molecular target: T1, Dma1(1–173aa)-GFP (S. pombe) (UniProt Q10322)
T1 sequence: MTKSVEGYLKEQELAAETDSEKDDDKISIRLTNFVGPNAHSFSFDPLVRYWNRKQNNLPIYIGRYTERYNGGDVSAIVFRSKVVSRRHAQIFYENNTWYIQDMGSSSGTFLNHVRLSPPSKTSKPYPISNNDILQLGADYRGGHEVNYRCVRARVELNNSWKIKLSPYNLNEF
Assay: co-IP; lysates of S. pombe cells expressing GFP-tagged Dma1 (whole or 1-173aa) and 6HA-tagged Tip1 (whole or truncated); NP-40 buffer; GFP fusion immunoprecipitated with anti-GFP, anti-HA blot

“C-terminus fragment of Tip1 covering 245-461aa, tagged with 6HA (from UniProt P79065) (domain or fragment)” was tested, and the binding was “binds”.
